Test results from PubChem BioAssay AID493014 (National Center for Advancing Translational Sciences (NCATS), 2011).
The other results are listed elsewhere or left out. These are further read-outs of the screen, such as a control signal, another cell line or another target. No call is given for them. Compounds called inactive in the main read-out are mostly missing here. Words in brackets tell the shape of the fitted curve; partial curves, single points and poor fits give uncertain potencies.

Test: qHTS Assay to Find Inhibitors of Chronic Active B-Cell Receptor Signaling
Conditions: ABC-DLBCL IkBa-CBG/CBR reporter, luminescence ratio (green luciferase fused to IkBa over red control in TMD8 lymphoma cells), 4 h
Outline: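 Doxycycline induced both beetle luciferases in TMD8 lymphoma cells; IKK-driven degradation limits the IkappaBalpha-fused green signal, while red luminescence normalises for cell number and nonspecific effects. Compounds tested up to 46 uM, 4 hrs.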

[1] = measured here: CBR red luminescence, cell number
[2] = measured here: IkBa-CBG green luminescence

Row | Compound | AC50 [1] | AC50 [2]
1 | Cc1ccc(S(=O)(=O)Nc2ccccc2C(O)c2ccccc2)cc1 (stereo not given) | 22.4 µM [rising, single point] | –
2 | COc1ccccc1C(=O)Nc1nc(-c2cccs2)c(NC(C)=O)s1 | 16.4 µM [rising, single point] | –
3 | CCN(CC(=O)Nc1ccccc1OC)C(=O)c1ccc2[nH]c3c(c2c1)CC(C)CC3 (stereo not given) | 20.6 µM [falling, single point] | –
4 | CCN1CCS/C1=C/C=C/C1=[N+](CC)CCS1 | – | 29.1 µM [falling, partial curve, poor fit]
5 | CCN(C(=O)c1cc2c(C)nc3ccccc3c2o1)c1cc(Cl)ccc1OC | 15.8 µM [falling, single point] | –
6 | CC(C)=NOc1nc(N(C)C)nc(N(C)C)n1 | 1.64 µM [rising, single point] | –
7 | CC1CN(S(=O)(=O)c2ccc(NC(=O)c3cc(-c4ccccc4O)n[nH]3)cc2)CC(C)O1 (stereo not given) | 12.6 µM [falling, partial curve] | –
8 | COc1ccc(-n2c(N)c(C(=O)Nc3c(C)n(C)n(-c4ccccc4)c3=O)c3nc4ccccc4nc32)cc1 | 14.1 µM [rising, single point] | –
9 | CCCc1cc(C(=O)Nc2cccnc2)no1 | 11.2 µM [falling, partial curve, poor fit] | –
10 | CC(=O)c1ccc(N2CCN(C(=O)C3(S(=O)(=O)c4ccc(Cl)cc4)CC3)CC2)cc1 | 10 µM [falling, partial curve, poor fit] | –
11 | Fc1cccc(Cn2cc(C(=S)N3CCOCC3)c3ccccc32)c1 | 22.4 µM [falling, partial curve, poor fit] | –
12 | S=C1SCN(Cc2cccnc2)CN1Cc1cccnc1 | 12.6 µM [falling, partial curve, poor fit] | –
13 | Cc1cc(C)n(-c2nc3ccccc3c(=O)n2OCc2ccc(F)cc2)n1 | 14.1 µM [falling, single point] | –
14 | CN(C)/C=C1\SC(=S)N(c2ccc(Br)cc2)C1=O | 10 µM [rising, partial curve, poor fit] | –
15 | O=C(Nc1cccc(F)c1)C1CCN(C(=O)Cc2ccccc2)CC1 | 2.06 µM [falling, partial curve] | –
16 | O=C(Nc1ccccc1)c1nnn(Cc2ccccc2)c1NC(=O)C(F)(F)F | 11.2 µM [falling, partial curve] | –
17 | COC(=O)c1cccc(NC(=O)NC(=O)c2ccccc2Cl)c1 | 1.12 µM [falling, full curve] | –
18 | COc1ccc(Cl)cc1NC(=O)C/C(C)=N/NC(=O)c1ccccc1[N+](=O)[O-] | 11.2 µM [falling, partial curve, poor fit] | –
19 | CCN(CCCNC(=O)c1c(C)cc(=O)oc1C)c1ccccc1 | 29.1 µM [falling, partial curve, poor fit] | –
20 | CC1Cc2ccccc2N1C(=O)CSc1nnc(-c2ccccc2)c(-c2ccccc2)n1 (stereo not given) | 35.5 µM [falling, partial curve, poor fit] | –
21 | Cc1cccc(NC(=S)NNC(=O)c2ccccc2Br)c1 | 29.1 µM [falling, single point] | –
22 | CC(C)OC(=O)CSc1nnc(Cc2ccccc2)n1Cc1ccco1 | 29.1 µM [falling, single point] | –

Row | Compound | AC50 [1] | AC50 [2]
23 | CN1CCN(c2ccccc2NC(=O)c2ccc(-c3cccc(Cl)c3)o2)CC1 | 15.8 µM [falling, partial curve, poor fit] | –
24 | Cc1ccc(-c2cc(NC(=O)CCl)n(-c3ccccc3)n2)cc1 | 35.5 µM [falling, single point] | –
25 | O=C(CSc1nc(Nc2ccc(F)cc2)c2ccccc2n1)c1ccc(F)cc1 | 2.82 µM [falling, single point] | –
26 | O=[N+]([O-])c1cccc(-c2nn(-c3ccccc3)cc2CO)c1 | 2.51 µM [rising, partial curve, poor fit] | –
27 | CC(=O)Nc1ccc(NC(=O)COC(=O)[C@@H](NC(=O)c2ccc(F)cc2)C(C)C)cc1 | 35.5 µM [rising, single point] | –
28 | CCC(=O)Nc1ccc2c(c1)Cc1cc(NC(=O)CC)ccc1-2 | 20 µM [rising, partial curve, poor fit] | –
29 | COc1cccc(C(=O)COc2ccc(NC(=O)c3cccs3)cc2)c1 | 35.5 µM [falling, single point] | –
30 | O=C(Nc1ccc(N2CCN(C(=O)c3ccccc3)CC2)cc1)c1ccc2c(c1)OCO2 | 10 µM [falling, partial curve, poor fit] | –
31 | O=C(COc1ccc(-c2nnco2)cc1)Nc1ccc(F)c(Cl)c1 | 0.326 µM [rising, full curve, poor fit] | –
32 | O=C(NNS(=O)(=O)c1ccccc1)c1csc(-c2cccnc2)n1 | 0.562 µM [falling, full curve, poor fit] | –
33 | COc1ccc(-n2ncc3c(NCc4ccco4)ncnc32)cc1 | 4.47 µM [rising, single point] | –
34 | Cc1ccccc1Cc1c(C)nc2c(C(=O)NCc3ccco3)cnn2c1C | 12.6 µM [falling, single point] | –
35 | O=C(CSc1nc2ccccc2c(=O)n1Cc1ccco1)N1CCCC1 | 7.08 µM [falling, partial curve, poor fit] | –
36 | Cc1ccc(C)c(NC(=O)CSc2nccn2Cc2ccco2)c1 | 0.447 µM [falling, partial curve, poor fit] | –
37 | C/C(CC(=O)NCc1ccc(Cl)cc1)=N\NC(=O)c1ccccc1F | 20 µM [falling, partial curve, poor fit] | –
38 | O=C(O)CN1C(=O)/C(=C\c2cc(Br)ccc2OCc2ccc([N+](=O)[O-])cc2)SC1=S | 8.91 µM [rising, partial curve, poor fit] | –
39 | COCCNC(=O)c1cc2c(-c3ccccc3F)nn(C)c2s1 | 4.61 µM [falling, full curve] | –
40 | COc1ccc(NC(=O)c2cccc(NC(=O)c3ccccc3)c2)c(OC)c1 | 35.5 µM [falling, single point] | –
41 | CCOc1ccc(NC(=O)CSc2nc3nc4c(cc3c(=O)n2CC)COC(C)(C)C4)cc1 | 12.6 µM [rising, partial curve, poor fit] | 7.94 µM [falling, partial curve, poor fit]
42 | CCn1c(COc2cccc3cccnc23)nnc1SCC(=O)O | 0.517 µM [falling, partial curve, poor fit] | –
43 | COc1cc(NC(=O)c2ccc3c(=O)n(Cc4ccco4)c(=S)[nH]c3c2)cc(OC)c1OC | 0.251 µM [falling, full curve, poor fit] | –
44 | O=C(CCN1C(=O)C2C3C=CC(C3)C2C1=O)NCCc1ccccc1Cl (stereo not given) | 1.03 µM [rising, full curve, poor fit] | –

Copied from above: compounds 27 to 29
Row | Compound | AC50 [1] | AC50 [2]
27 | CC(=O)Nc1ccc(NC(=O)COC(=O)[C@@H](NC(=O)c2ccc(F)cc2)C(C)C)cc1 | 35.5 µM [rising, single point] | –
28 | CCC(=O)Nc1ccc2c(c1)Cc1cc(NC(=O)CC)ccc1-2 | 20 µM [rising, partial curve, poor fit] | –
29 | COc1cccc(C(=O)COc2ccc(NC(=O)c3cccs3)cc2)c1 | 35.5 µM [falling, single point] | –

(more compounds)

Row | Compound | AC50 [1] | AC50 [2]
45 | COc1ccc(C(=O)Nc2ccc3c(c2)CCCN3C(=O)c2cccs2)c(OC)c1 | 31.6 µM [falling, single point] | –
46 | O=C(O)c1ccc(Nc2nc(-c3cccnc3)cs2)cc1 | 0.112 µM [falling, full curve] | –
47 | COc1ccc(NS(=O)(=O)c2csc(C(N)=O)c2)cc1OC | 3.98 µM [rising, full curve] | –
48 | Cc1ccc(S(=O)(=O)CCc2nnc(NC(=O)C3CCCO3)s2)cc1 (stereo not given) | 16.4 µM [rising, single point] | –
49 | CCOC(=O)CSc1nnc(NCC(=O)OC)c(=O)[nH]1 | 14.6 µM [falling, partial curve, poor fit] | –
50 | CCn1c2ccc(OC)cc2c2nc3ccccc3nc21 | 1.03 µM [falling, full curve] | –
51 | COC(CNC(=O)c1coc2nc3ccccc3nc12)OC | 12.6 µM [falling, single point] | –
52 | O=C(COC(=O)Cc1c[nH]c2ccccc12)Nc1ccccc1 | 5.8 µM [falling, partial curve] | –
53 | Cc1noc(C)c1COc1cccc(C(=O)Nc2ccc(C#N)cc2)c1 | 3.66 µM [falling, partial curve, poor fit] | –
54 | COc1cc2c(cc1OC)C(CCc1ccccc1)=NCC2 | 3.16 µM [falling, single point] | –
55 | O=[N+]([O-])c1ccc(-c2cc(-c3ccc(Cl)cc3)n[nH]2)cc1 | 0.447 µM [rising, full curve, poor fit] | –
56 | COc1ccccc1Nc1c([N+](=O)[O-])cc(C)cc1[N+](=O)[O-] | 25.1 µM [falling, single point] | –
57 | COc1cc(C(=O)Nc2nc3ccccc3[nH]2)cc(OC)c1OC | 9.2 µM [falling, partial curve, poor fit] | –
58 | Cc1cc(Br)cc(Br)c1OCC(=O)NNC(=O)CCC(=O)NCc1ccccc1 | 35.5 µM [rising, partial curve, poor fit] | –
59 | O=C(CSc1ccccc1)NCc1cccnc1 | 7.08 µM [rising, partial curve, poor fit] | –
60 | O=C(O)Cc1ccc(C(=O)c2cccs2)s1 | 2.51 µM [rising, full curve, poor fit] | –
61 | COc1cc2ccccc2cc1C(=O)NC1CCC(C)CC1 (stereo not given) | 23.1 µM [rising, partial curve, poor fit] | –
62 | Cc1cc2cc3c(cc2nc1SCC(=O)O)CCC3 | – | 3.98 µM [rising, full curve, poor fit]
63 | O=Nc1c(-c2ccccc2)cc2ccccn12 | 22.4 µM [falling, single point] | –
64 | COc1ccc(C(=O)Oc2ccc(/C=N/O)cc2)cc1 | 35.5 µM [rising, single point] | –
